From patent US20240066045A1, “SEMICARBAZONE-BASED SAPONIN CONJUGATE” (priority 2020, published 2024)

System: human red blood cells (RBC)
Assay: Haemolysis assay
Type: cell-based
Description: Red blood cells (RBCs) were isolated from a buffy coat using a Ficoll gradient. The obtained RBC pellet (˜4-5 ml) was washed 2× with 50 ml DPBS (without Ca^2+/Mg^2+, PAN-Biotech GmbH). Cells were pelleted by centrifugation for 10 min, 800×g at RT. RBC were counted and resuspended at 500.000.000 c/ml in DPBS (without Ca^2+/Mg^2+), based on total cell count. SO1861-linker dilutions were prepared in DPBS (with Ca^2+/Mg^2+, PAN-Biotech GmbH), at 1.11× final strength. For positive lysis control a 0.02% Triton-X100 solution was prepared in DPBS^+/+. Of all compound solutions 135 μl was dispensed/well in a 96 well V-bottom plate. To this 15 μl RBC suspension was added and mixed shortly (10 sec—600 rpm). The plate was incubated 30 min at RT, with gentle agitation. Afterwards the plate was spun for 10 min at 800×g to pellet the RBC and 100-120 μl supernatant was transferred to a standard 96 wp. Subsequently, the OD at 405 nm was measured on a Thermo Scientific Multiskan FC plate reader (Thermo Scientific). For quantification the background signal of ‘DPBS^+/+ only’ wells was subtracted from all other wells before the percentage of hemolysis was calculated in comparison to 0.02% Triton-X100, by dividing the background corrected signal of treated wells over the background corrected signal of the 0.02% Triton-X100 wells (×100).

Structure (SMILES): CC(=O)O[C@H]1[C@H](O[C@@H]2OC[C@@H](O)[C@H](O)[C@H]2O)[C@@H](O)[C@H](O[C@@H]2[C@H](O)[C@@H](O[C@@H]3O[C@@H](C)[C@H](O[C@@H]4OC[C@@H](O)[C@H](O[C@@H]5O[C@H](CO)[C@@H](O)[C@H](O)[C@H]5O)[C@H]4O)[C@@H](O)[C@H]3O)[C@H](OC(=O)[C@]34CCC(C)(C)C[C@H]3C3=CC[C@@H]5[C@@]6(C)CC[C@H](O[C@@H]7O[C@H](C(=O)O)[C@@H](O)[C@H](O[C@@H]8OC[C@@H](O)[C@H](O)[C@H]8O)[C@H]7O[C@@H]7O[C@H](CO)[C@H](O)[C@H](O)[C@H]7O)[C@@](C)(C=O)[C@@H]6CC[C@@]5(C)[C@]3(C)C[C@H]4O)O[C@@H]2C)O[C@@H]1C [SO1861]
- Ratio: IC50 haemolysis/IC50 activity (activity in A431 cells): 33
- Ratio: IC50 haemolysis/IC50 activity (activity in HeLa cells): 20
